# Measured values: PubChem BioAssay (NCATS)
# Amino acid sequences for entries named in this document (tags omitted). A change or cut given only in a name is not applied to a line headed by its entry.
# UniProt Q9HC16: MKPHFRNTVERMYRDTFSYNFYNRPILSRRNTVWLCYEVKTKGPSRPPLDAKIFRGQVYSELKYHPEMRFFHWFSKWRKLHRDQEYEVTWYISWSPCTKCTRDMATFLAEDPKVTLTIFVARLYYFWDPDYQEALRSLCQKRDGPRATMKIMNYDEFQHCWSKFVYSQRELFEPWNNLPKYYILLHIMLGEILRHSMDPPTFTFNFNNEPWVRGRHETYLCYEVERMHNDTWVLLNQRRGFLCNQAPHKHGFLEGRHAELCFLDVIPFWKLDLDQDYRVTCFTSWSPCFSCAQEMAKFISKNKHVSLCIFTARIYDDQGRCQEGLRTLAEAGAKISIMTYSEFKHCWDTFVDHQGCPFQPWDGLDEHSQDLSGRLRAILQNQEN
# UniProt P11712, whole entry, looked up: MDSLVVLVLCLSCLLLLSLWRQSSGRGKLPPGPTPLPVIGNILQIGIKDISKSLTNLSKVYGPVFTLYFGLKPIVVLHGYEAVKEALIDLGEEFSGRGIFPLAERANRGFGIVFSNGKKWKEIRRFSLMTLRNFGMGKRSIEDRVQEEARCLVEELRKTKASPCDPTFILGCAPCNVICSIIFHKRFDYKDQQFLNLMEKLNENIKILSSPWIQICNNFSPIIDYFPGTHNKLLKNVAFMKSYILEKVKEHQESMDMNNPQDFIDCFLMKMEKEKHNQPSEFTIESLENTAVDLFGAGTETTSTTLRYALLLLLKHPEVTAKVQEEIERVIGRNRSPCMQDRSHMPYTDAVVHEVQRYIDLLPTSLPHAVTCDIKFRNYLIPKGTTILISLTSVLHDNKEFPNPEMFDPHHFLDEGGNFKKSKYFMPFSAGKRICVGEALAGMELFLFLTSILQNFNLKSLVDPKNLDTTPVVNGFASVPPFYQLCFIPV
# This list was built around the results that the source calls inconclusive (neither active nor inactive); the mix of calls is not that of the screen. For some assays here: Potencies of inconclusive entries are doubtful fits and often do not repeat. Calls of active or inactive are those of the source. Unless noted, calls come from the whole dose curve; as a rule, active = well fitted curve in the direction sought with a large enough effect; inconclusive = small, poorly fitted or top-dose-only effect, or another doubt; inactive = no such curve, though single readings can be large; an effect the other way counts as inactive or inconclusive.
# Legend:
# [1] = MultiTox-Fluor Cytotoxicity Assay - LYMP1-003 - Live Cells (AID 962); details: LYMP1-003 lymphoblastoid cells, MultiTox-Fluor live-cell protease fluorescence; note: potency is the fitted concentration of half-maximal effect
# In short: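 Cells plated at 2500 per well and incubated 5 hr; compounds added and incubated 16 hr at 37 C; MultiTox-Fluor reagent added for 60 min at room temperature; fluorescence of liberated AFC measured at 405/510 nm.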
# [2] = Cell Viability - LYMP2-003 (AID 965); details: LYMP2-003 lymphoblastoid cell viability;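 note: potency is the fitted concentration of half-maximal effect; cells exposed to compounds for 24 h before reading; nearly all actives have a fitted effect of over 50% in size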
# In short: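 Human lymphoblastoid LYMP2-003 cells, 2500/well, exposed to compounds for 24 h at 37 C in complete medium. Viability read as intracellular ATP by CellTiter-Glo luminescence; AC50 from Hill-equation fits of qHTS concentration-response data.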
# [3] = Cell Viability - LYMP1-002 - Assay at 24 hr (AID 993); details: LYMP1-002 lymphoblastoid cells viability; note: potency is the fitted concentration of half-maximal effect
# In short: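 qHTS, LYMP1-002 lymphoblastoid, 24 h cpd, 37 C, CellTiter-Glo ATP luminescence; AC50 via Hill eq.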
# [4] = Cell Viability - LYMP2-025 (AID 976); details: LYMP2-025 lymphoblastoid cell viability; activity change, negative = cytotoxicity: at 92.2 µM (top of the series); note: potency is the fitted concentration of half-maximal effect
# In short: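 In qHTS format, LYMP2-025 lymphoblastoid cells in complete culture medium received compound for 24 hr; ATP-based CellTiter-Glo signal gave viability, with AC50 derived by Hill equation.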
# [5] = Cell Viability - LYMP2-012 (AID 982); details: LYMP2-012 lymphoblastoid cell viability qHTS; series mostly up to 92.2 µM;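 note: cellular ATP by luciferase luminescence where a drop means cytotoxicity; potency is the fitted concentration of half-maximal effect; cells exposed to compound for one day before reading; nearly all actives have a fitted effect of over 55% in size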
# [6] = target: DNA dC->dU-editing enzyme APOBEC-3G (Homo sapiens) (UniProt Q9HC16); experiment: qHTS for inhibitors of Vif-A3G interactions: Validation (AID 588379); details: Vif-A3G protein interaction assay; note: potency is the fitted concentration of half-maximal effect
# In short: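 HeLa cells stably expressing Vif and A3G-eYFP, 700 cells/well, incubated overnight at 37 deg C, then exposed to compound overnight at 37 deg C. Inhibition of Vif-mediated degradation read as increased yellow fluorescence (Ex 488/Em 500-530) by laser-scanning cytometry.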
# [7] = target: Cytochrome P450 2C9 (Homo sapiens) (UniProt P11712); experiment: qHTS for inhibitors of CYP2C9 against the NCATS DSHEA and TCM libraries (AID 1919973); details: recombinant CYP2C9 enzyme activity, luminescence; series mostly up to 18.8 µM; note: potency is the fitted concentration of half-maximal effect
# In short: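 Light output from converted D-luciferin reports remaining CYP activity. Compounds preincubate with enzyme and substrate for 15 min; NADPH regeneration (1x final) runs the reaction for 30-45 min.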
# [8] = qHTS assay for small molecule activators of the p53 signaling pathway (AID 651743; active = well fitted activation curve with a large enough effect in the signal ratio, not every such curve was filed as active; inconclusive = small, poorly fitted or top-dose-only effect, or a change in a side signal; the % refers to the signal ratio; note: % of control where 0% means no effect); details: HCT-116 p53RE-bla, beta-lactamase FRET ratio, 16 h; activation: active compounds read high
# In short: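 HCT-116 p53RE-bla, 4,000 cells/well; 5 h settle; cpd/DMSO 16 h, 37 C; LiveBLAzer B/G 2 h RT; fluorescence intensity.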
# [9] = qHTS assay to identify small molecules that stimulate interleukin-8 (IL-8) secretion (AID 651758; active = well fitted activation curve with a large enough effect in the signal ratio; inconclusive = small, poorly fitted or top-dose-only effect, or effect the other way, or a change in a side signal; the % refers to the signal ratio; note: 0% is about no effect); details: HTRF ratio (665/615); activation: at 92.2 µM (top of the series)
# In short: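 THP-1 cells (2000/well) exposed to compound 16 h at 37 C; secreted IL-8 then detected by HTRF with cryptate- and XL665-labelled anti-IL-8 antibody pair after 1-3 h at room temperature.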
# [10] = qHTS assay for small molecule agonists of the antioxidant response element (ARE) signaling pathway measured by Nrf2-dependant transcriptional activity - cell viability counter screen (AID 720653; active = well fitted curve in the direction sought with a large enough effect in the repeat runs; inconclusive = weak or mixed curves; inactive = no such curve, though single readings can be large; an effect the other way counts as inactive or inconclusive; note: % is set by controls: 0 for no effect and ±100 for the full control effect); details: ARE-bla HepG2 viability, CellTiter-Glo ATP luminescence, 16 h; max response: active compounds read low
# In short: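 ARE-bla HepG2 cells treated with compounds for 16 h at 37C; this counter screen measures viability as intracellular ATP by CellTiter-Glo luminescence after 30 min at room temperature.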
# [11] = qHTS of pediatric cancer cell lines to identify multiple opportunities for drug repurposing: Primary screen for Saos-2 cells (AID 1347097); details: Saos-2 viability, CellTiter-Glo ATP luminescence, 48 h; series mostly up to 46 µM; note: potency is the fitted concentration of half-maximal effect; nearly all actives have a fitted effect of over 40% in size
# In short: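 Cells seeded at 500-1,000 cells/well in growth media, rested 5 hours at 37 degrees C, 5% CO2, then dosed; MIPE compounds at 11-point (from 0.78 nM) and NPC at 8-point (from 0.59 nM) final concentrations. Viability by CellTiter-Glo luminescence after 48 hours.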
# [12] = qHTS of pediatric cancer cell lines to identify multiple opportunities for drug repurposing: Primary screen for LAN-5 cells (AID 1347100); details: LAN-5 neuroblastoma viability, CellTiter-Glo luminescence, 48 h; series mostly up to 46 µM; note: potency is the fitted concentration of half-maximal effect
# In short: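 Viability after 48 h compound treatment at 37C, 500-1,000 cells/well, read as ATP luminescence with CellTiter-Glo. Primary screens used 11-point (MIPE, 0.78 nM-46 µM) or 8-point (NPC, 0.59 nM-46 µM) final concentrations; follow-up screens used 11-point dilutions.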
# MCC-13 = experiment: qHTS assay to identify novel small-molecules to repurpose for Merkel cell carcinoma treatment (AID 1296009); details: MCC and control cell lines, CellTiter-Glo viability, 72 h; series mostly up to 46 µM; note: nearly all actives have a fitted effect of over 60% in size; note: potency is the fitted concentration of half-maximal effect; for activity change, negative = cytotoxicity: % is set by controls: 0 for no effect and ±100 for the full control effect
# In short: (§1)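 Cells were incubated with compound for 72 hr at 37 degree celsius before CellTiter-Glo addition. Luminescence was normalized with no-cell wells as full cytotoxicity and DMSO as baseline.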
# MCC-26 = experiment: as above; details: MCC and control cell lines, CellTiter-Glo viability, 72 h; activity change, negative = cytotoxicity: at 46 µM (top of the series)
# In short: as §1
# MKL-1 = experiment: as above; details: MCC and control cell lines, CellTiter-Glo viability, 72 h; activity change, negative = cytotoxicity: at 46 µM (top of the series)
# In short: as §1
# MKL-2 = experiment: as above; details: MCC and control cell lines, CellTiter-Glo viability, 72 h; activity change, negative = cytotoxicity: at 46 µM (top of the series)
# In short: as §1
# UISO = experiment: as above; details: MCC and control cell lines, CellTiter-Glo viability, 72 h; activity change, negative = cytotoxicity: at 46 µM (top of the series)
# In short: as §1
structure (smiles),measurement,setting,value
CC(C)(C)NC(=O)[C@@H]1C[C@@H]2CCCC[C@@H]2CN1C[C@@H](O)[C@H](Cc1ccccc1)NC(=O)[C@H](CC(N)=O)NC(=O)c1ccc2ccccc2n1,Potency,[1],"inconclusive: 100 µM [cytotoxic, partial curve, poor fit]"
same,Potency,[2],"inconclusive: 79.4 µM [cytotoxic, single point]"
same,Potency,[3],"inconclusive: 50.1 µM [cytotoxic, partial curve]"
CC/C=C\C/C=C\C/C=C\CCCCCCCC(=O)O,Potency,[4],"inconclusive: 79.4 µM [cytotoxic, single point]"
same,Potency,[5],"inconclusive: 50.1 µM [cytotoxic, partial curve, poor fit]"
same,Potency,[6],"inconclusive: 26.6 µM [inhibitor, single point]"
same,Potency,[7],active: 7.94 µM
CC1=CCC2CC1C2(C)C (configuration not stated),activation,[8],inactive: -1.57%
same,Potency,[9],inactive
same,max response,[10],inactive: -2.11%
CCOC(=O)c1ccc(O)c(O)c1,Potency,[11],"inconclusive: 6.68 µM [cytotoxic, single point]"
same,Potency,[12],"inconclusive: 15 µM [cytotoxic, partial curve]"
same,Potency,MCC-13,"inconclusive: 18.8 µM [inhibitor, partial curve, poor fit]"
same,Potency,MCC-26,inactive
same,Potency,MKL-1,active: 5.96 µM
same,Potency,MKL-2,"inconclusive: 15 µM [inhibitor, single point]"
same,Potency,UISO,"inconclusive: 16.8 µM [inhibitor, single point]"

# Random excerpt: 2 entries already listed, in no set order.
structure (smiles),measurement,setting,value
CCOC(=O)c1ccc(O)c(O)c1,Potency,MKL-2,"inconclusive: 15 µM [inhibitor, single point]"
same,Potency,MCC-13,"inconclusive: 18.8 µM [inhibitor, partial curve, poor fit]"
